Source: PMC5438719
No constants are given. Whether binding was seen depends on the method and setting. Binding seen in cells or lysates may run through a third protein. Some entries that bind do so weakly or less than the wild type. For some assays here: Where a sequence is shown, tags or fusion partners need not be part of it.

The chains behind the UniProt entries cited, without tags or fusion partners.
UniProt Q15022: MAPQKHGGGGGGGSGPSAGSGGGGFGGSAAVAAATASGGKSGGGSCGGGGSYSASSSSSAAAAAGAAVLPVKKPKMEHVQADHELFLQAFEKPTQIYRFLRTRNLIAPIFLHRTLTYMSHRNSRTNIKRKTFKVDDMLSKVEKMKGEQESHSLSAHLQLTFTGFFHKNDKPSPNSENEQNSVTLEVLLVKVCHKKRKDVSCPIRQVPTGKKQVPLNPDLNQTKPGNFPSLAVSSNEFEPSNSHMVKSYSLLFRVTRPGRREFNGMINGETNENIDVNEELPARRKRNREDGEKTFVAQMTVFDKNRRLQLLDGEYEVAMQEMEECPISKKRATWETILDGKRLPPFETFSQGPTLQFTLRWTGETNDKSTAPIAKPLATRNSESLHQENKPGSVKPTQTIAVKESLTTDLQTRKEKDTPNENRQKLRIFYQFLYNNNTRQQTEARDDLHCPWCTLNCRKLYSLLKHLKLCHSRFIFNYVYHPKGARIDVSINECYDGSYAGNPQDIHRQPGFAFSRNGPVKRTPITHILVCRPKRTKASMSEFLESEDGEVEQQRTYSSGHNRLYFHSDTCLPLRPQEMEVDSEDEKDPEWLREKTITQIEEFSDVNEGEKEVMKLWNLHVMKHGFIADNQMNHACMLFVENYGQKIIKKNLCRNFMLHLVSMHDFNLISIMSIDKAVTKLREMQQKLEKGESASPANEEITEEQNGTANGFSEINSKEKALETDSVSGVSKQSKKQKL

Assays:
[1] = target: T1, brain-derived neurotrophic factor (human (endogenous in HCT-116)) (UniProt P23560); assay: co-IP; Co-IP assay to determine the interaction between SUZ12 and BDNF; cells and precipitated protein not stated
T1 sequence: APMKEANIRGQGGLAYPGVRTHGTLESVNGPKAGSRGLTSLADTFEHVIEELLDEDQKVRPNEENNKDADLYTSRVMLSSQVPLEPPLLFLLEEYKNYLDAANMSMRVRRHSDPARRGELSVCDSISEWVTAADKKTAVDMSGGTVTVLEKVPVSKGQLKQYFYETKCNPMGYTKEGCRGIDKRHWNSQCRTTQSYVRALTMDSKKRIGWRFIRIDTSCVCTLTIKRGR

[2] = target: T2, uridine diphosphate-glucuronosyltransferase 2B7 (human (endogenous in HCT-116)) (UniProt P16662); assay: co-IP; normal and morphine tolerance-like (1 uM morphine, 48 h) HCT-116 cells; which protein was precipitated not given
T2 sequence: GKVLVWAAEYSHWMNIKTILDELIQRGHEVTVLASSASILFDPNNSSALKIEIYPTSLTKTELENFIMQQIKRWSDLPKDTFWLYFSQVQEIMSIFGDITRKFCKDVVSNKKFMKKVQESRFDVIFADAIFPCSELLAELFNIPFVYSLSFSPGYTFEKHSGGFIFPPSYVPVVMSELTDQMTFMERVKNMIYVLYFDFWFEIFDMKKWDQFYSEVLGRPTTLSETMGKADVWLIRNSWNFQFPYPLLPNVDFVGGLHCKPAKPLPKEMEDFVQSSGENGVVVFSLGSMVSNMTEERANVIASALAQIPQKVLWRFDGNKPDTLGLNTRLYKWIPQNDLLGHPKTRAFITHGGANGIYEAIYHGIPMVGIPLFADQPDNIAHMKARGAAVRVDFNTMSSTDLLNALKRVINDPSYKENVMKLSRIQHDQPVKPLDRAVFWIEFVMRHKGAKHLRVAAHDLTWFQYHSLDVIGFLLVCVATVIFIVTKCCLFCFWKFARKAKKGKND

With SUZ12 (from UniProt Q15022 1-739) the binding [1] was “binds”.

B1: brain-derived neurotrophic factor (protein, UniProt P23560 19-247)
chain: T1 sequence
B1 was tested, and the binding [2] was “binds”.
